Results are given in words; binding and its absence hold for the method and conditions named. Some results given as binding are weak or reduced against the parent protein; the word gives no strength.
Target: CD21 receptor, the complement receptor 2 (CR2) (human (endogenous in Elijah cells)) (UniProt P20023)
Assay: flow cytometry on cells

The chains behind the UniProt entries cited, without tags or fusion partners. Residues count along the entry.
UniProt P20023, residues 21-1033: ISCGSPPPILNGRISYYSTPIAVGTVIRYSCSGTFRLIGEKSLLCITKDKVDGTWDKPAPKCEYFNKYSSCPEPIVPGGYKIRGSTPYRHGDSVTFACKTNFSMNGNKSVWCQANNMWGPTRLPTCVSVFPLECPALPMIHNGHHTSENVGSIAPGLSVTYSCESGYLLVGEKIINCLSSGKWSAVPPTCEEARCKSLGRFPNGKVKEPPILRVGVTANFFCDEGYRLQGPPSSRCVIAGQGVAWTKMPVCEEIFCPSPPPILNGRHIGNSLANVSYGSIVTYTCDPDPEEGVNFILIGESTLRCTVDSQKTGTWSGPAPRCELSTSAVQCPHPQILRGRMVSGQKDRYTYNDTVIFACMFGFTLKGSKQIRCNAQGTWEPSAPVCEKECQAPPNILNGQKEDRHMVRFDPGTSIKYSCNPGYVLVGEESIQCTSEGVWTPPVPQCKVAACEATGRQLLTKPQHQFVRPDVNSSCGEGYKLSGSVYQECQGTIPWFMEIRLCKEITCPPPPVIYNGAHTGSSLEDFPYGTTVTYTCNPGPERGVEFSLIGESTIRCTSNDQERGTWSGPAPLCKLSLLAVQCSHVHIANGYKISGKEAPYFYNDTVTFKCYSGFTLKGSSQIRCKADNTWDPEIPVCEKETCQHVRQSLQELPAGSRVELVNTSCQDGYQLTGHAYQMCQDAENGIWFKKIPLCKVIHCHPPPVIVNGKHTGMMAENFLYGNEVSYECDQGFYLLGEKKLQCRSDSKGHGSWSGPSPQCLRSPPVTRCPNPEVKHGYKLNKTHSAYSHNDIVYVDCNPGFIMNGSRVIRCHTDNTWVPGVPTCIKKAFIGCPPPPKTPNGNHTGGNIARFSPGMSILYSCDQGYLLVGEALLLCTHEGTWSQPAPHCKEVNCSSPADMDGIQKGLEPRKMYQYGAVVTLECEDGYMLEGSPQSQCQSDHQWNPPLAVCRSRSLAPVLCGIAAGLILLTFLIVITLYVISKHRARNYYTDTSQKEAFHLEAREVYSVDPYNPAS

Which binding does the source give for “viral gp350 protein encoded by BLLF1 (Epstein-Barr virus, B95.8 strain, recombinant 2089) (from UniProt P03200-1 1-907)” here?
The binding was “binds”.
